In this experiment the target is T1, DYRK1B (Homo sapiens, UniProt Q9Y463).
T1 construct: purchased Eurofins DiscoverX Corporation
Briefly: Kinase inhibition profile, KINOMEscan 11-point dose response. Type of experiment: binding.

Sequences of proteins named here, by UniProt entry; tags and fusion partners are left off.
UniProt Q9Y463, whole entry: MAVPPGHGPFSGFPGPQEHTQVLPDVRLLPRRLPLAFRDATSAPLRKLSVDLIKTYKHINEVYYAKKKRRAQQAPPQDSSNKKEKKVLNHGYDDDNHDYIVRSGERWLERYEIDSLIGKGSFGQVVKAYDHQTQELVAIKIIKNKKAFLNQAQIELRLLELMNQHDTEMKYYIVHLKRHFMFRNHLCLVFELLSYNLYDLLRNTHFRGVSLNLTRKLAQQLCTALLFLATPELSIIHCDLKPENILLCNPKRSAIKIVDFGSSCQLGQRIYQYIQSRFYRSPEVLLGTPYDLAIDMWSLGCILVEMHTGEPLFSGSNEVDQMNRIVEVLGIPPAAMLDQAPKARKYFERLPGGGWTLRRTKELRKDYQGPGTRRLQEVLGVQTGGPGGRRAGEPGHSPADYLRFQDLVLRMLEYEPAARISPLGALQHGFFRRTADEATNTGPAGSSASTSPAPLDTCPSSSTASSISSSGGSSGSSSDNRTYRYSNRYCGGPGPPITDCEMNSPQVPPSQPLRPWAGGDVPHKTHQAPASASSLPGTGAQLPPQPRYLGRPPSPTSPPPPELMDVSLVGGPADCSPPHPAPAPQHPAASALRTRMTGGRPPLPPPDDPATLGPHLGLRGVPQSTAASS

We go through 1 compound from article PMC8708872, “Discovery of a Novel Template, 7-Substituted 7-Deaza-4′-Thioadenosine Derivatives as Multi-Kinase Inhibitors” (Pharmaceuticals, 2021).

One may read the IC50 as the midpoint of a concentration-inhibition curve. The low end stands for inhibition by little substance, the high end for a need for much substance. One may read the Ki as the equilibrium dissociation constant of an inhibitor or competing ligand from its target. Lower therefore signals higher affinity.

With `COc1ccc2c(c1)[nH]c1c(C)nccc12` [Harmine, reference compound], 85 nM corresponded to half-maximal inhibition (11-point 3-fold serial dilution) (IC50). For the same compound, the affinity (by Cheng-Prusoff equation), expressed as Ki, was 85 nM.
